PubChem BioAssay AID743121 | NCATS, 2013
In all, the deposit lists about 26,000 reagents; shown is a part drawn at random. 167 of them (0.63%) count as active. 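Calls are per gene from RSA p-values that are not deposited; an individual active-marked siRNA can sensitise only weakly.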 Unmarked entries are inactive. The numbers tell different reagents against one gene apart. Not all columns of the deposit are shown.

Screen: 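Partners whose loss is lethal together with topoisomerase I blockade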 (primary screen)
System: MDA-MB-231 cells, a human breast cancer line
Reagent: single siRNA against human genes, 20 nM siRNA (0.8 pmol per well)
Duration: 120 h (drug added 48 h after transfection, read 72 h later)
Conditions: camptothecin 20 nM (about EC30) for 72 h; vehicle 0.1% DMSO in parallel plates
Detection: 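Cell viability by ATP luminescence (CellTiter-Glo) as % of non-targeting siRNA wells, and the log2 ratio of viability without drug over viability with camptothecin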
Scale: log2 vehicle/camptothecin viability: higher = stronger sensitisation to camptothecin; viability with camptothecin: higher = more viable cells
Units: viability with camptothecin in % of control
Hit rule: 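Active genes have an RSA gene-level p-value below 0.001, computed from the ratios of their separate siRNAs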

AKAP14 #1
- log2 vehicle/camptothecin viability: -0.217
- viability with camptothecin: 104

AKAP14 #2
- log2 vehicle/camptothecin viability: -0.113
- viability with camptothecin: 95.7

AKAP14 #3
- log2 vehicle/camptothecin viability: 1.13
- viability with camptothecin: 43.1

AKAP14 #4
- log2 vehicle/camptothecin viability: -0.538
- viability with camptothecin: 79.6

PPP1R10 #1
- log2 vehicle/camptothecin viability: 0.0863
- viability with camptothecin: 31.1

PPP1R10 #2
- log2 vehicle/camptothecin viability: 0.206
- viability with camptothecin: 41.7

PPP1R10 #3
- log2 vehicle/camptothecin viability: -0.589
- viability with camptothecin: 58.4

PPP1R10 #4
- log2 vehicle/camptothecin viability: -0.435
- viability with camptothecin: 79.4

ATP2C2 #1
- log2 vehicle/camptothecin viability: -0.328
- viability with camptothecin: 72.8

ATP2C2 #2
- log2 vehicle/camptothecin viability: -0.259
- viability with camptothecin: 78

ATP2C2 #3
- log2 vehicle/camptothecin viability: -0.219
- viability with camptothecin: 91

ATP2C2 #4
- log2 vehicle/camptothecin viability: 1.15
- viability with camptothecin: 43

PLCH2 #1
- log2 vehicle/camptothecin viability: -0.222
- viability with camptothecin: 66.8

PLCH2 #2
- log2 vehicle/camptothecin viability: -0.0172
- viability with camptothecin: 78.3

PLCH2 #3
- log2 vehicle/camptothecin viability: -0.598
- viability with camptothecin: 101

PLCH2 #4
- log2 vehicle/camptothecin viability: 0.0298
- viability with camptothecin: 25.9

Sorted by “viability with camptothecin” (highest first): some entries from above.
ATP2C2 #3
- log2 vehicle/camptothecin viability: -0.219
- viability with camptothecin: 91

PLCH2 #2
- log2 vehicle/camptothecin viability: -0.0172
- viability with camptothecin: 78.3

ATP2C2 #2
- log2 vehicle/camptothecin viability: -0.259
- viability with camptothecin: 78

PLCH2 #1
- log2 vehicle/camptothecin viability: -0.222
- viability with camptothecin: 66.8

ATP2C2 #4
- log2 vehicle/camptothecin viability: 1.15
- viability with camptothecin: 43

More reagents:
SMPD1 #1
- log2 vehicle/camptothecin viability: -0.362
- viability with camptothecin: 86.6

SMPD1 #2
- log2 vehicle/camptothecin viability: 0.0691
- viability with camptothecin: 36.8

SMPD1 #3
- log2 vehicle/camptothecin viability: 0.873
- viability with camptothecin: 58.3

TMEM108 #1
- log2 vehicle/camptothecin viability: -0.463
- viability with camptothecin: 90.6

TMEM108 #2
- log2 vehicle/camptothecin viability: -0.138
- viability with camptothecin: 65.8

TMEM108 #3
- log2 vehicle/camptothecin viability: 0.099
- viability with camptothecin: 74.9

TMEM108 #4
- log2 vehicle/camptothecin viability: -0.172
- viability with camptothecin: 89.4

PPBP #1
- log2 vehicle/camptothecin viability: -0.38
- viability with camptothecin: 50.1

PPBP #2
- log2 vehicle/camptothecin viability: -0.516
- viability with camptothecin: 74.5

PPBP #3
- log2 vehicle/camptothecin viability: -0.124
- viability with camptothecin: 94.8

PPBP #4
- log2 vehicle/camptothecin viability: -0.242
- viability with camptothecin: 106

PACRG #1
- log2 vehicle/camptothecin viability: -0.507
- viability with camptothecin: 54.9

PACRG #2
- log2 vehicle/camptothecin viability: 0.328
- viability with camptothecin: 50.6

PACRG #3
- log2 vehicle/camptothecin viability: -0.344
- viability with camptothecin: 67.4

PROM1 #1
- log2 vehicle/camptothecin viability: -0.232
- viability with camptothecin: 110

PROM1 #2
- log2 vehicle/camptothecin viability: 0.288
- viability with camptothecin: 71.5

PROM1 #3
- log2 vehicle/camptothecin viability: -0.217
- viability with camptothecin: 98.4

PROM1 #4
- log2 vehicle/camptothecin viability: -0.389
- viability with camptothecin: 125

KIF16B #1
- log2 vehicle/camptothecin viability: 0.0439
- viability with camptothecin: 85.3

KIF16B #2
- log2 vehicle/camptothecin viability: 0.00147
- viability with camptothecin: 82.5

KIF16B #3
- log2 vehicle/camptothecin viability: 0.0965
- viability with camptothecin: 86.1

KIF16B #4
- log2 vehicle/camptothecin viability: 0.35
- viability with camptothecin: 64.4
